{"source": "patent US9855245B2", "about": "“Methods for improving lipid profiles using atrasentan” (AbbVie Inc., priority 2013, dated 2018)", "key": {"[1]": {"test_system": "subjects with type 2 diabetes and nephropathy", "test": "Example 1: Phase 2b randomized, double-blind, placebo-controlled 12-week clinical study"}, "[2]": {"test_system": "subjects with type 2 diabetes and nephropathy", "test": "Example 2: Phase 2b randomized, double-blind, placebo-controlled 12-week study conducted in Japan"}}, "data": [{"smiles": "CCCCN(CCCC)C(=O)CN1C[C@H](c2ccc3c(c2)OCO3)[C@@H](C(=O)O)[C@@H]1c1ccc(OC)cc1", "note": "[Atrasentan, (2R,3R,4S)-4-(1,3-benzodioxol-5-yl)-1-[2-(dibutylamino)-2-oxoethyl]-2-(4-methoxyphenyl)pyrrolidine-3-carboxylic acid]", "values": [{"measurement": "Glucose, Difference (95% CI) from placebo", "setting": "[1]; 0.75 mg/day", "value": "−8.8 (−49.85, 32.26) mg/dL"}, {"measurement": "Glucose, Final On-Treatment Visit Mean (SD)", "setting": "[1]; 0.75 mg/day", "value": "157.9 (76.55) mg/dL"}, {"measurement": "Glucose, LS Mean Change from Baseline (SE)", "setting": "[1]; 0.75 mg/day", "value": "−4.3 (10.74) mg/dL"}, {"measurement": "Glucose, Difference (95% CI) from placebo", "setting": "[1]; 1.25 mg/day", "value": "−8.2 (−48.64, 32.34) mg/dL"}, {"measurement": "Glucose, Final On-Treatment Visit Mean (SD)", "setting": "[1]; 1.25 mg/day", "value": "158.5 (72.59) mg/dL"}, {"measurement": "Glucose, LS Mean Change from Baseline (SE)", "setting": "[1]; 1.25 mg/day", "value": "−3.7 (10.29) mg/dL"}, {"measurement": "Glucose, Difference (95% CI) from placebo", "setting": "[2]; 0.75 mg/day", "value": "−3.1 (−36.04, 29.92) mg/dL"}, {"measurement": "Glucose, Final On-Treatment Visit Mean (SD)", "setting": "[2]; 0.75 mg/day", "value": "132.1 (37.13) mg/dL"}, {"measurement": "Glucose, LS Mean Change from Baseline (SE)", "setting": "[2]; 0.75 mg/day", "value": "−3.3 (10.39) mg/dL"}, {"measurement": "Glucose, Difference (95% CI) from placebo", "setting": "[2]; 1.25 mg/day", "value": "−9.0 (−42.41, 24.48) mg/dL"}, {"measurement": "Glucose, Final On-Treatment Visit Mean (SD)", "setting": "[2]; 1.25 mg/day", "value": "124.3 (33.10) mg/dL"}, {"measurement": "Glucose, LS Mean Change from Baseline (SE)", "setting": "[2]; 1.25 mg/day", "value": "−9.2 (10.67) mg/dL"}]}]}
